Assay results published in PubChem BioAssay AID2685 (National Center for Advancing Translational Sciences (NCATS), 2010).
The list shows a part of the results. The main result of the screen is listed elsewhere. These columns were measured beside it and carry no call. Compounds called inactive in the main read-out are mostly missing here. Potencies come from curve fits of mixed quality, noted in brackets.

Assay: qHTS Assay for Lipid Storage Modulators in Drosophila S3 Cells;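 as to cell number change: cells counted by Cell Tracker Red CMTPX staining in the red channel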
Conditions: BODIPY lipid droplet fluorescence, 18-24 h; for cell number change: measured here: cell count max response, cells fed with added oleic acid
How it was run: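 Drosophila S3 cells got compounds at several concentrations plus oleic acid (400 uM solution). Laser-scanning cytometry with 488 nm excitation read lipid droplets at 500-530 nm and cells at 575-640 nm. Percent activity was relative to 20 uM Triacsin C.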

[1] = measured here: lipid fluorescence (Fed channel) AC50, cells fed with added oleic acid
[2] = measured here: cell number channel AC50, cells fed with added oleic acid

Row | SMILES | cell number change [%] | AC50 [1] | AC50 [2]
1 | CCn1c(CC(=O)Nc2ccccc2)nnc1SCC(=O)NC1=NCCS1 | 5.98 | – | –
2 | COc1cc2nc(-c3ccccc3C)oc(=O)c2cc1OC | -13.6 | 16.4 µM [falling, single point] | –
3 | CCn1nnnc1SCC(=O)c1ccc(NC(C)=O)cc1 | – | 5.8 µM [falling, single point] | 0.651 µM [rising, single point]
4 | O=c1oc2ccc3ccccc3c2c2c1SC(C(F)(F)F)C2 (stereo not given) | – | 0.731 µM [rising, single point] | 0.82 µM [rising, partial curve]
5 | CSc1ccc(S(=O)(=O)NCC(=O)OCC(=O)NCC2CCCO2)cc1[N+](=O)[O-] (stereo not given) | -8.1 | 1.64 µM [falling, full curve, poor fit] | –
6 | C=CCNc1ncnc2c1[nH]c1ccc(Cl)cc12 | -3.31 | – | 0.092 µM [rising, full curve, poor fit]
7 | COc1ccc(F)cc1S(=O)(=O)N1CCCN(S(=O)(=O)c2cc(F)ccc2OC)CC1 | -1.85 | 6.51 µM [rising, single point] | –
8 | CC(=O)Nc1ccc(C(=O)N2CCN(S(=O)(=O)c3ccc4c(c3)OCCCO4)CC2)cc1 | -2.33 | 10.3 µM [rising, partial curve, poor fit] | –
9 | O=C(OCC(=O)N1c2ccccc2Sc2ccccc21)c1cccnc1 | 112 | – | 23.1 µM [rising, single point]
10 | O=C(C1CCN(c2nnc(-n3cccc3)s2)CC1)N1CCN(Cc2ccc3c(c2)OCO3)CC1 | -0.711 | 18.4 µM [falling, single point] | –
11 | CC(C(=O)NCC(=O)Nc1ccc(F)c(F)c1F)N1CCN(c2ccc(O)cc2)CC1 (stereo not given) | 14.3 | 32.6 µM [falling, single point] | –
12 | Cc1ccc2c(c1)N(CC(=O)N(Cc1ccc3c(c1)OCO3)CC1CCCO1)C(=O)C(C)O2 (stereo not given) | -18.3 | 4.11 µM [rising, full curve, poor fit] | –
13 | CCN=C(NCC)SC1CC(=O)N(c2cccc(OC)c2)C1=O (stereo not given) | 7.41 | 6.51 µM [falling, single point] | –
14 | Cc1ccccc1NC(=O)COC(=O)CNC(=O)c1sc2ccccc2c1Cl | 0.916 | 29.1 µM [rising, single point] | –
15 | O=C(c1ccc(N2CCCC2)c([N+](=O)[O-])c1)N1CCN(S(=O)(=O)c2ccccc2)CC1 | -17.7 | – | –
16 | CC1=CC(C)(C)n2c(O)c(C3=NC(=S)NC3=O)c3cc(OC(=O)c4cccc5ccccc45)cc1c32 | -16.9 | 29.1 µM [rising, single point] | –
17 | COc1cc(C(N)=O)cc(Br)c1OCc1ccccc1 | -9.88 | – | –
18 | Clc1ccc(C2=Nn3c(nnc3-c3n[nH]c4c3CCC4)SC2)cc1 | 6.45 | 29.1 µM [falling, partial curve, poor fit] | –
19 | Cc1nonc1-c1csc(N)n1 | -24.3 | – | 2.06 µM [rising, partial curve, poor fit]

Looked up above:
In AC50 [1], `CCN=C(NCC)SC1CC(=O)N(c2cccc(OC)c2)C1=O` (stereo not given) has 6.51 µM [falling, single point]
In cell number change [%], `CC1=CC(C)(C)n2c(O)c(C3=NC(=S)NC3=O)c3cc(OC(=O)c4cccc5ccccc45)cc1c32` has -16.9

Carrying on.

Row | SMILES | cell number change [%] | AC50 [1] | AC50 [2]
20 | Cc1ccc[n+](C(C)C(=O)c2ccc(Cl)cc2)c1 (stereo not given) | -7.46 | 3.26 µM [rising, full curve] | –
21 | CCN(CC)C(=N)/C(C#N)=N/Nc1ccccc1 | -15.7 | 0.0058 µM [falling, full curve, poor fit] | –
22 | COC(=O)[C@H](Cc1ccccc1)NC(=O)N1CCCCC1C (stereo not given in full) | -43.7 | 7.31 µM [falling, partial curve] | 32.6 µM [falling, single point]
23 | COc1cccc(-c2csc(N3CCN(Cc4ccccc4)CC3)n2)c1 | -25.9 | 3.66 µM [rising, single point] | –
24 | Nc1cccc(-c2cn(-c3cc4cc(C#CC5(O)CCCCC5)ccc4oc3=O)nn2)c1 | -41.8 | 25.9 µM [falling, single point] | 25.9 µM [falling, single point]
25 | CS(=O)(=O)n1nc(OC(=O)c2cccs2)cc1N | 30.6 | 16.4 µM [rising, partial curve] | 25.9 µM [rising, single point]
26 | CCc1nn(CC(=O)N2CCCCCC2)c(=O)c2cc3ccccc3n12 | -5.27 | 5.8 µM [rising, full curve] | –
27 | Cc1cccc(C)c1NS(=O)(=O)c1c(C)[nH]c(=O)[nH]c1=O | -6.12 | 0.058 µM [falling, full curve, poor fit] | –
28 | CCOC(=O)c1ccc(NC(=S)Nc2cccc(N)n2)cc1 | -26.6 | 18.4 µM [falling, single point] | –
29 | FC(F)(F)COc1ccc(-n2ccnc2)nn1 | 9.17 | 6.51 µM [falling, single point] | 0.103 µM [falling, full curve, poor fit]
30 | Cc1onc(NC(=O)NC(=O)c2ccccc2F)c1Br | 42.6 | 29.1 µM [rising, single point] | 6.51 µM [rising, partial curve]
31 | CCn1c(CNc2nc(-c3ccccc3)cs2)nnc1SCC(=O)NCc1ccco1 | 8.63 | 5.17 µM [rising, partial curve, poor fit] | –
32 | OC(CN1C2=NCCN2c2ccccc21)c1ccc(Br)cc1 (stereo not given) | -41.2 | 1.03 µM [falling, full curve, poor fit] | 0.82 µM [falling, full curve, poor fit]
33 | Cc1ccc(-c2nn3c(-c4ccco4)nnc3c3ccccc23)cc1S(=O)(=O)NCC1CCCO1 (stereo not given) | 10.2 | 2.59 µM [rising, full curve, poor fit] | –
34 | Cc1cccc(NC(=O)COC(=O)CSc2ccccc2)c1C | 17 | 2.91 µM [rising, partial curve, poor fit] | –
35 | CCC(C)(C(=O)Nc1c(C)cccc1C)N(C)C(=O)c1ccc2ccccc2n1 (stereo not given) | 12.9 | – | –
36 | CCN1CCN(Cc2ccc(NC(=O)c3cc(NC(=O)c4cncc(-c5cccs5)c4)cc(OC)c3)cc2C(F)(F)F)CC1 | -21 | – | –
37 | COc1ccc(/C=N/N=C2/C(=O)Nc3ccccc32)cc1O | 63.1 | – | 23.1 µM [rising, single point]
